Laboratory results taken from patent publication US20050136492A1, “Affinity labeling of enzymes for detection of enzyme activity level in living cells” (priority 2001, published 2005).
Some of these results come from one statement about several compounds together. Some ranges recur; such a range may be that of the whole group of compounds.

System: HL-60 cells
Experiment: Labeling of CPT-treated HL-60 cells with FLISP (FFCK, FLCK) and FLICA (FAM-VAD-FMK, SR-VAD-FMK) reagents, by LSC or fluorescence microscopy
Type: cell-based, Human
Conditions: for fraction of cells labeled with the ligand: HL-60 after 3 h of treatment with CPT, repeated experiments; for cells with unchanged morphology that were labeled: induced cells treated simultaneously with SR-VAD-FMK and FFCK (or FLCK)
Protocol: Preparation of reagents: Fluorescent inhibitors of serine proteases (FLISP) reagents, 5(6)-Carboxyfluoresceinyl-L-phenylalanylchloromethyl ketone (FFCK) and 5(6)-carboxyfluoresceinyl-L-leucylchloromethyl ketone (FLCK) were dissolved initially in dimethyl sulfoxide (DMSO; Sigma) to yield a 10 mM concentration. Aliquots were made from this stock solution and stored frozen at −20° C. protected from light. This reagent stock was then diluted directly into the cell culture media to give a 1× working reagent concentration of 10 μM. Dilution of the reagent into aqueous (cell culture) media is done just prior to cell exposure to preserve the labile chloromethyl ketone reactivity of FLISP reagent.
Fluorescent inhibitors of caspases (FLICA) reagents, namely the fluorescein labeled VAD-FMK (FAM-VAD-FMK) and sulforhodamine labeled VAD-FMK (SR-VAD-FMK) (Immunochemistry Technologies; Bloomington, Minn.) were both designed to detect the presence of active caspases within apoptotic cells. These inhibitors were dissolved in DMSO to obtain a 150× concentrated stock solution. Aliquots of these solutions were stored at −20° C. in the dark. Prior to use, a 30× working solution of either FAM-VAD-FMK or SR-VAD-FMK was prepared by diluting the stock solution 1:5 in phosphate buffered saline (PBS) and mixing until the solution become clear. The 30× working solution was diluted 1:30 cell culture media to give a final 1× working reagent concentration of 10 μM.
Cells: Human promyelocytic leukemic HL-60 cells were obtained from American Type Culture Collection (ATCC; Rockville, Md.). They were cultured in 25 mL FALCON flasks (Becton Dickinson Co., Franklin Lakes, N.J.) using RPMI 1640 supplemented with 10% fetal calf serum, 100 units/mL penicillin, […] and 2 mM L-glutamine (all from Gibco/BRL Life Technologies, Inc., Grand Island, N.Y.) in a humidified incubator set to maintain 37.5° C. and 5% CO2 as previously described (Bedner et al., Exp Cell Res., 2000, 259:308-313; Smolewski et al., Cytometry, 2001, 44:73-82). At the onset of experiments, there were fewer than 5×10^5 cells/ml in culture. To induce apoptosis the cells were treated with 0.15 μM DNA topoisomerase I inhibitor camptothecin (CPT; Sigma Chemical Co., St. Louis, Mo.) for 3 hours.
Cell staining and fluorescence measurement by LSC: The HL-60 cells from the untreated or CPT treated cultures were centrifuged (200 g, 5 min) and resuspended in PBS at approximately 10^4 cells per 5 mL volume. Cells were then attached electrostatically to microscope slides as described before (Bedner et al., Exp Cell Res., 2000, 259:308-313; Smolewski et al., Cytometry, 2001, 44:73-82). The attachment was achieved by the incubation (15 min) of cells suspended in serum-free PBS in shallow (<1 mm depth; 1.5×1.5 cm) wells on horizontally placed microscope slides that were rinsed in 100% ethanol and air dried prior to use, at 100% humidity. The electrostatically attached cells remain viable, exclude such dyes as trypan blue and propidium iodide (PI), and have unchanged morphology for several hours (Bedner et al., Exp Cell Res., 2000, 259:308-313). After the cells became attached, PBS was removed from the wells and was replaced by 150 μL of the culture medium containing 10% FCS. FLISP staining solutions were prepared by diluting 5 μL of the 10 mM FFCK or FLCK stock solution into 5 mL of culture medium yielding a final FLISP concentration 10 μM. The medium from above the cells on the slide was then replaced with 150 μL of this staining solution. A polyethylene foil (2.5×2.5 cm) was positioned over the staining solution to prevent drying. The slides were subsequently incubated for 1 h at 37° C. in a closed box with wet tissue to additionally prevent drying. The FLISP staining solution was removed by immersing the slides for 2 min in PBS in Coplin jars, containing fresh PBS. The washing step was repeated once more with fresh PBS. […]

Substance | fraction of cells labeled with the ligand | cells with unchanged morphology that were labeled [%]
5(6)-carboxylfluoresceinyl-L-valylalanylaspartylfluoromethyl ketone [FAM-VAD-FMK, reference compound] | 35-45% | –
sulforhodaminyl-L-valylalanylaspartylfluoromethyl ketone [SR-VAD-FMK, reference compound] | 35-45% | < 10
5(6)-Carboxyfluorescyl-L-leucylchloromethyl ketone [FLCK] | 35-45% | < 10
5(6)-Carboxyfluoresceinyl-L-phenylalanylchloromethyl ketone [FFCK] | 35-45% | < 10
